Binding data for one substance are collected here from article PMC12120773, “SIRT4 Promotes Pancreatic Cancer Stemness by Enhancing Histone Lactylation and Epigenetic Reprogramming Stimulated by Calcium Signaling” (Advanced Science, 2025).

Protein sequences, listed by entry. Tags and fused reporters are not part of them.
UniProt P06733: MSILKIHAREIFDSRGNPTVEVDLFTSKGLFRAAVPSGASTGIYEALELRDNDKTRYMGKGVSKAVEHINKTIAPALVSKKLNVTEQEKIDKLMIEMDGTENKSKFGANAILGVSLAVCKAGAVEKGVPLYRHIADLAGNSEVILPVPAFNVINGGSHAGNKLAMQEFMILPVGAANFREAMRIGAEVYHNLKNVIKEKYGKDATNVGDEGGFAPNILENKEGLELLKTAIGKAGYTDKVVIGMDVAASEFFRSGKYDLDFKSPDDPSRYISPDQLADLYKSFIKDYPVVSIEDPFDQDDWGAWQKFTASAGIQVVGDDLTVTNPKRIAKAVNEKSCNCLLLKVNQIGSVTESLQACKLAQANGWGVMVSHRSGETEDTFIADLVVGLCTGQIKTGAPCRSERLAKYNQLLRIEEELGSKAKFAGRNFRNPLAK

These are yes or no findings as the source states them, for the method shown. In cells and extracts the contact can be indirect. Here binding means that the protein was enriched with, or labelled near, the bait; the list need not be complete. Tags and fused reporters may be left off the sequences shown.

The target of the experiment is T1, SIRT4‐FLAG (human) (UniProt Q9Y6E7).
T1 sequence: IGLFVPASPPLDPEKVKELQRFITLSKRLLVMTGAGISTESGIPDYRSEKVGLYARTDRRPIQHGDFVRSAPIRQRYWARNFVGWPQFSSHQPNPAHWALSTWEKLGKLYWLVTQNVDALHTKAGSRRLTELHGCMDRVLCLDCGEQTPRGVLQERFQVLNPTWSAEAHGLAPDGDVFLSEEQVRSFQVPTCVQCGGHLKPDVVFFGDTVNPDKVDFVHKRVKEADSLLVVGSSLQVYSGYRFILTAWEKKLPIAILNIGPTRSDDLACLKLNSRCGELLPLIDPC
Briefly: affinity purification with mass spectrometry; anti‐FLAG M2 beads on lysates of PANC‐1 cells expressing SIRT4‐FLAG or empty vector; SDS‐PAGE and silver stain; bands specific to SIRT4‐FLAG identified by mass spectrometry.

Take “Enolase 1 (ENO1), endogenous in PANC‐1 (from UniProt P06733 1-434) (enzyme)”: the binding entry was “binds”.
